# Part of at least one peptide drawing is inferred or uncertain, most often the ends. Bridge positions count the residues as written; N and C are the ends. Square brackets hold non-standard residues; d marks the D form. Peptide text beside a SMILES is read from it. * marks the point of attachment. X1 = O=C1CN2CCN3CCN(CC(=O)*)CCN(CC2)CC(=O)[O][La]([O]1)[O]C(=O)C3
# By UniProt entry, the sequences of proteins in these tests, tags left out. Where a name states a change or a piece, a line headed by the entry shows the natural chain unless it says otherwise.
# UniProt P30874: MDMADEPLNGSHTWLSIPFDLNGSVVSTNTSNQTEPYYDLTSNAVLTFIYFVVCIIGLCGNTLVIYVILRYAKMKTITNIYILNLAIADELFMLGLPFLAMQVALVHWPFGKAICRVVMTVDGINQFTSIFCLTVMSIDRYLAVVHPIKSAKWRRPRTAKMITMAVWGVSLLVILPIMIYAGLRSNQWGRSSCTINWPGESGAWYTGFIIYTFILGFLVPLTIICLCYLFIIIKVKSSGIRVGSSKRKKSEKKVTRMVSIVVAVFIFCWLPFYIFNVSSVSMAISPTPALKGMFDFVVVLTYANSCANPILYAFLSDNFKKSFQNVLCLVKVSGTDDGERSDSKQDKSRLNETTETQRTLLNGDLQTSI
# Assays:
# [1] = Log D7.4, miniaturized shake flask assay (n-octanol/PBS pH 7.4); format: physicochemical; details: for Log D7.4 of La^3+ chelate: La3+ chelate, n-octanol/PBS; for LogD7.4: metal chelate as named (Eu or La)
# Experimental: Log D7.4 measurements of the La^3+-labeled derivatives: The octanol-water partition coefficients at pH7.4 (LogD7.4) of DOTA-linker-TATE derivatives were determined using the miniaturized shake flask assay (Table 1). Briefly, 1:1 n-octanol (HPLC grade) was added to the solution of the test compound in PBS buffer (NaH2PO4/Na2HPO4 buffer, pH 7.4). The mixture was well mixed and then two layers were separated by centrifuge. The concentrations of compound in each layer were determined by HPLC.
# SSTR2 receptor = molecular target: T1, SSTR2 receptor (Homo sapiens, UniProt P30874); assay: whole-cell competition binding assay with Eu-DOTATATE as competing ligand (Hek293/SSTR2 cells); details: read-out: Ki (nM) of La^3+ chelate, La3+ chelate as test agent, Eu3+ chelate of DOTATATE as competing ligand
# T1 construct: expressed in transfected cells; host or cells: Hek293/SSTR2 cells
# Experimental: Competition curves were analyzed with GraphPad Prism software using the sigmoidal dose-response (variable slope) classical equation for nonlinear regression analysis.
SMILES,Log D7.4 of La^3+ chelate [1],LogD7.4 [1],Ki (SSTR2 receptor) [nM]
"C[C@@H](O)[C@H](NC(=O)[C@@H]1CSSC[C@H](NC(=O)[C@@H](Cc2ccccc2)NC(=O)CCCCCNC(=O)CN2CCN3CCN4CCN(CC2)CC(=O)[O][La]([O]C(=O)C3)[O]C(=O)C4)C(=O)N[C@@H](Cc2ccc(O)cc2)C(=O)N[C@H](Cc2c[nH]c3ccccc23)C(=O)N[C@@H](CCCCN)C(=O)N[C@@H]([C@@H](C)O)C(=O)N1)C(=O)O [Compound 8, La-DOTA-Ahx-TATE]",−2.95,−2.95,
"C[C@@H](NC(=O)[C@@H](Cc1ccccc1)NC(=O)CN1CCN2CCN3CCN(CC1)CC(=O)[O][139La]([O]C(=O)C2)[O]C(=O)C3)C(=O)N[C@H](Cc1ccccc1)C(=O)N[C@H]1CSSC[C@@H](C(=O)N[C@H](C(=O)O)[C@@H](C)O)NC(=O)[C@H]([C@@H](C)O)NC(=O)[C@H](CCCCN)NC(=O)[C@@H](Cc2c[nH]c3ccccc23)NC(=O)[C@H](Cc2ccc(O)cc2)NC1=O [Compound 14, 139La-DOTA-D-Phe-D-Ala-TATE]",−2.72,−2.72,0.79 ± 0.6
"C[C@@H](O)[C@H](NC(=O)[C@@H]1CSSC[C@H](NC(=O)[C@@H](Cc2ccccc2)NC(=O)[C@@H](CCC(=O)O)NC(=O)[C@@H](CCC(=O)O)NC(=O)CN2CCN3CCN4CCN(CC2)CC(=O)[O][La]([O]C(=O)C3)[O]C(=O)C4)C(=O)N[C@@H](Cc2ccc(O)cc2)C(=O)N[C@H](Cc2c[nH]c3ccccc23)C(=O)N[C@@H](CCCCN)C(=O)N[C@@H]([C@@H](C)O)C(=O)N1)C(=O)O [Compound 9, La-DOTA-D-Glu-D-Glu-TATE] (X1-[dE][dE][dF]CY[dW]KTCT-OH; disulfide 4-9; C-terminus assumed)",−3.16,−3.16,37.2 ± 26.8
"C[C@@H](O)[C@H](NC(=O)[C@@H]1CSSC[C@H](NC(=O)[C@@H](Cc2ccccc2)NC(=O)CN2CCN3CCN4CCN(CC2)CC(=O)[O][La]([O]C(=O)C3)[O]C(=O)C4)C(=O)N[C@@H](Cc2ccc(O)cc2)C(=O)N[C@H](Cc2c[nH]c3ccccc23)C(=O)N[C@@H](CCCCN)C(=O)N[C@@H]([C@@H](C)O)C(=O)N1)C(=O)O [Compound 7, La-DOTA-TATE, reference compound]",−2.95,−2.95,
"CC(C)C[C@@H](NC(=O)[C@@H](Cc1ccccc1)NC(=O)CN1CCN2CCN3CCN(CC1)CC(=O)[O][139La]([O]C(=O)C2)[O]C(=O)C3)C(=O)N[C@H](Cc1ccccc1)C(=O)N[C@H]1CSSC[C@@H](C(=O)N[C@H](C(=O)O)[C@@H](C)O)NC(=O)[C@H]([C@@H](C)O)NC(=O)[C@H](CCCCN)NC(=O)[C@@H](Cc2c[nH]c3ccccc23)NC(=O)[C@H](Cc2ccc(O)cc2)NC1=O [Compound 15, 139La-DOTA-D-Phe-D-Leu-TATE]",−2.15,−2.15,0.5 ± 0.35

# From patent publication US20240207458A1, “TARGETED ALPHA PARTICLE THERAPY FOR SOMATOSTATIN RECEPTOR 2 POSITIVE NEUROENDOCRINE TUMORS AND METASTASES” (H. LEE MOFFITT CANCER CENTER AND RESEARCH INSTITUTE, INC., priority 2021, published 2024)
